Source: publication PMC7819943, “Rice protein-binding microarrays: a tool to detect cis-acting elements near promoter regions in rice”
The list shows a part of the results.

Each sequence was assayed against T1, OsSMF1 (Oryza sativa, UniProt Q6ZLB0 1-436) (assay: protein-binding microarray (RPBM); PBS, 2% BSA, 51.3 ng/ul salmon testes DNA, 50 uM zinc acetate, 200 nM TF, 25 C, 1 h; high values mean tight binding). Details: protein: recombinant; tags: N-terminal polyhistidine and DsRed monomer fusion (pET32a); chain copies: 2; label: CyDye5-dUTP incorporated in the synthesized complementary strand; 3' TTTTT single-stranded linker to array surface; dsDNA, one strand shown.
T1 sequence: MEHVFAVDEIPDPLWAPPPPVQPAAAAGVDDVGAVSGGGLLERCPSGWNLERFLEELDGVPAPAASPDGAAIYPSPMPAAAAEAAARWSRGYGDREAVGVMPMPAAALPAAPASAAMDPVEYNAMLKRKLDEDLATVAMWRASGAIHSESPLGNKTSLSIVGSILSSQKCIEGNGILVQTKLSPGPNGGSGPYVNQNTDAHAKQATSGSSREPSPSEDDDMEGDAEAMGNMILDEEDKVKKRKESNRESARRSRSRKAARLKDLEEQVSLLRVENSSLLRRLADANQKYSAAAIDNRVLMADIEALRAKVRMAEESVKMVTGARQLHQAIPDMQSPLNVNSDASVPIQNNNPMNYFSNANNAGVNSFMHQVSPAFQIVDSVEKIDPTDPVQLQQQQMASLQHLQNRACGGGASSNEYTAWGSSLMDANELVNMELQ
Method in brief: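 Ni–NTA purification followed expression in E. coli BL21-CodonPlus of transcription factors fused N-terminally to a polyhistidine tag and DsRed. At 200 nM in PBS with 2% BSA, salmon testes DNA and 50 µM zinc acetate, the protein was incubated for 1 h at 25 °C with a custom Agilent array that had been primer-extended with Cy5-dUTP and blocked with 2% BSA. After washing, the array was read on an Axon 4000B scanner. The binding signal is per-feature fluorescence intensity in arbitrary units.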

Row | Sequence | binding signal
1 | CTCGATTAGCTGTCAACGCTGTTTGGGCCGGCGAGCTCCACGGAGTCACCTAGTGCAG | 4770 fluorescence intensity (a.u.)
2 | TTCTTGGCCGGAAGACACGCCGGCGCGACGGCATCATCCACGGAGTCACCTAGTGCAG | 23300 fluorescence intensity (a.u.)
3 | ACGATTAATTGTTTAGTAAGCGTGCTGACGTTAAACGAGACGGAGTCACCTAGTGCAG | 3690 fluorescence intensity (a.u.)
4 | TGCGGCGTGGCGTCGCCGTGGCGCCTAGGCTGCCTTCTCCCGGAGTCACCTAGTGCAG | 3470 fluorescence intensity (a.u.)
5 | CTTGGGGAAGGCGGCGGGTGTCGGGGAGGGCGAGGGTATCCGGAGTCACCTAGTGCAG | 3400 fluorescence intensity (a.u.)
6 | AATGGTCCTCCACTGCTAAATCCAACTGTAAATCTGTCAGCGGAGTCACCTAGTGCAG | 3330 fluorescence intensity (a.u.)
7 | CCACCGGCCCGCATCACCAGAAGCCTGTCCTAAATGCACGCGGAGTCACCTAGTGCAG | 3620 fluorescence intensity (a.u.)
8 | CCTACGCCCACCTCGTCTCCGATGACGGCGGCGTCCTCGTCGGAGTCACCTAGTGCAG | 3910 fluorescence intensity (a.u.)
9 | GCTGAAGTGCATTTTCTCTTTTAACTGAATATACAGGTGTCGGAGTCACCTAGTGCAG | 24500 fluorescence intensity (a.u.)
10 | ACATATATATGGACTTATCTTTTCTACAACAAATCTATACCGGAGTCACCTAGTGCAG | 32100 fluorescence intensity (a.u.)
11 | CTGGGTGGATGGGGATCACACGTAAGTGATGCTCTGAGGACGGAGTCACCTAGTGCAG | 3700 fluorescence intensity (a.u.)
12 | GCCAAATGCCACATTGTGGCTAATTTTGCTAAGTTGGACGCGGAGTCACCTAGTGCAG | 37400 fluorescence intensity (a.u.)
13 | CAGTTACGACTAGTCGTAAATACGTCATTCATTAACTGTTCGGAGTCACCTAGTGCAG | 3210 fluorescence intensity (a.u.)
14 | CAATGAACAAATTGTTCGCTTGTACATGTGTTTGATTTTGCGGAGTCACCTAGTGCAG | 3510 fluorescence intensity (a.u.)
15 | GTCTCCATTGCTGACATGGCACACTAATTAGGGAGATAATCGGAGTCACCTAGTGCAG | 6860 fluorescence intensity (a.u.)
16 | TCAACTGGGAGGCAAATATCTTCATCGTGTTCGTCATTTTCGGAGTCACCTAGTGCAG | 3960 fluorescence intensity (a.u.)
17 | GGCGGCGGGTGGAGGGACGCCCGCTGAATCCGCCACCGGTCGGAGTCACCTAGTGCAG | 3170 fluorescence intensity (a.u.)
18 | GTCCTCGTCTCCACGCTACCGTTTCGCAACCACCCGCTTCCGGAGTCACCTAGTGCAG | 5260 fluorescence intensity (a.u.)
19 | GGGTAGAGCAGAAGGAGCTTAGTAAAGAGTTCTTTTGCCGCGGAGTCACCTAGTGCAG | 3360 fluorescence intensity (a.u.)
20 | GTCCCCGTCCGGCCCACGCTACATATGGTACAAACTGAGGCGGAGTCACCTAGTGCAG | 3780 fluorescence intensity (a.u.)
21 | ATTGTGTAGTTCATCTTGCGGAAACAACACAGTACGTGGTCGGAGTCACCTAGTGCAG | 3830 fluorescence intensity (a.u.)

A different layout for some results above:
CTTGGGGAAGGCGGCGGGTGTCGGGGAGGGCGAGGGTATCCGGAGTCACCTAGTGCAG
  binding signal: 3400 fluorescence intensity (a.u.)
CTGGGTGGATGGGGATCACACGTAAGTGATGCTCTGAGGACGGAGTCACCTAGTGCAG
  binding signal: 3700 fluorescence intensity (a.u.)

Continued.

Row | Sequence | binding signal
22 | TCGTGCATACACGTCAGGACTCCGGACATGAACCCACCACCGGAGTCACCTAGTGCAG | 9750 fluorescence intensity (a.u.)
23 | CTGGGCACTGGACCCCACCTGTCAATGGCACTGCCCTTCACGGAGTCACCTAGTGCAG | 34000 fluorescence intensity (a.u.)
24 | CTTTTAGATGTGGCAATTAACTATTTGCCACTGGACCACCCGGAGTCACCTAGTGCAG | 3740 fluorescence intensity (a.u.)
25 | TTTCGCGGGCGTGACAGCACGGCTCGAAGTCACTTTCCCCCGGAGTCACCTAGTGCAG | 3980 fluorescence intensity (a.u.)
26 | TGCCTCTCGCATGCGAAGCGAGCGCTCTACCATATGAGCTCGGAGTCACCTAGTGCAG | 21000 fluorescence intensity (a.u.)
27 | CCTATGCACTGATACGTGACAGCGGTGCACGTCGGCACAGCGGAGTCACCTAGTGCAG | 5120 fluorescence intensity (a.u.)
28 | TGATATCTGGATGCCCGTCATCACCGCCTCTGCCGATGAACGGAGTCACCTAGTGCAG | 3190 fluorescence intensity (a.u.)
29 | GTAGGTTCAGTACACGTCCCCTTACCGTGATGAGGCGCCTCGGAGTCACCTAGTGCAG | 5160 fluorescence intensity (a.u.)
30 | AATTAATATGAACTGCACATACATCACTGTGCTCATATTTCGGAGTCACCTAGTGCAG | 34600 fluorescence intensity (a.u.)
31 | GTCAAGAAACCATTTCGGTTACATCACACAACACAGCCTCCGGAGTCACCTAGTGCAG | 3160 fluorescence intensity (a.u.)
32 | GCGCCGCCACCCTCCACTACTACGAATCGCCAGCCGCCACCGGAGTCACCTAGTGCAG | 3210 fluorescence intensity (a.u.)
33 | GCCAGTGTGCCGCTCTACGAGGGAATCCCCGAGCTGAGCACGGAGTCACCTAGTGCAG | 3650 fluorescence intensity (a.u.)
34 | TTCTTGCTCCATTTACTTTAACAAGTTTTGGTGAACTTAACGGAGTCACCTAGTGCAG | 34200 fluorescence intensity (a.u.)
35 | TTAGCTTAGTTTCCAGTGGTTGGTGACTGTAACAAAATGTCGGAGTCACCTAGTGCAG | 5180 fluorescence intensity (a.u.)
36 | TCGCCAACTCGCGCCCAATCCCGGCTTGACACGTCACCCCCGGAGTCACCTAGTGCAG | 42000 fluorescence intensity (a.u.)
37 | ATTCAATTTCAAGCTGTGCACTAATGCATCTATCTTAAGCCGGAGTCACCTAGTGCAG | 17000 fluorescence intensity (a.u.)
38 | GTGTCGAGCCCAACACCGAGTGACGCACGCTCATCGCGGTCGGAGTCACCTAGTGCAG | 5480 fluorescence intensity (a.u.)
39 | AACCCGGCCACGTCTAATTTATTTGTAAGCCGCCACCCTCCGGAGTCACCTAGTGCAG | 3500 fluorescence intensity (a.u.)
40 | GTTGGTACGTGTGCTTGCGTTTGCGTTGCGGTGCAGCGCACGGAGTCACCTAGTGCAG | 3440 fluorescence intensity (a.u.)
41 | GTCTAGCTAGTGCAATTAGAGTAACCTATATATCACACAACGGAGTCACCTAGTGCAG | 52200 fluorescence intensity (a.u.)
42 | ACTTACACGTGGCCCCGAGATGACTTCCGGACCCACCTGTCGGAGTCACCTAGTGCAG | 7910 fluorescence intensity (a.u.)
